These are yes or no findings as the source states them, for the method shown. Some binding calls cover weakened binding; strength is not graded here.
Molecular target: enolase (UniProt P00924)
Assay: SEC + native MS; nanoflow SEC-nMS of reference proteins: 50 nL of 1 mg mL^-1 protein injected, 200 um ID capillary SEC column, 0.5 uL min^-1, eluted with 200 mM AmAc; isCID varies by protein; both purified

Amino acid sequences for entries named in this document (tags omitted).
UniProt P00924: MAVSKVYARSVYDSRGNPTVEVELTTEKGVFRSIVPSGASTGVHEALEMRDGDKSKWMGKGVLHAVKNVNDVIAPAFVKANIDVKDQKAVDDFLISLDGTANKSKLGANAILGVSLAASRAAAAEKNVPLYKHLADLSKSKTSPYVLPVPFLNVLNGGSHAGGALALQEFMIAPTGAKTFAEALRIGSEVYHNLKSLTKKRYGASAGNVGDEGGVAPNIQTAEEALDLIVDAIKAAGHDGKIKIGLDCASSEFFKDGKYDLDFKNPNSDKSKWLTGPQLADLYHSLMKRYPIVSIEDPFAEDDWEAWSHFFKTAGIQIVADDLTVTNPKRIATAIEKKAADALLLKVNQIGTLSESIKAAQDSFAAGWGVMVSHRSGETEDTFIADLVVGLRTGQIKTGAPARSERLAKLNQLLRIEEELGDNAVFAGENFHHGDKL

“enolase (from UniProt P00924 1-437) (enzyme)” was tested, and the binding was “binds”.
